The results are deposited in PubChem (AID504749; NCATS, 2011).

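A panel of P. falciparum strains inside erythrocytes is exposed to compounds for three days, then a DNA-binding dye reports the amount of parasite DNA. Each compound was titrated across a series from about 0.000037 to 29 µM. The number is the fitted AC50, the concentration giving a half-maximal change in signal; a lower value means higher potency, whether the curve shows a decrease or an increase. Calls follow the curve class and fit quality: every row here is inconclusive, covering signal-raising curves and weak, poorly fitted, partial or highest-dose-only inhibition curves.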

Values are in µM. All entries here are filed as inconclusive. These entries are mostly ones the record files as inconclusive; other results of the assay are not listed here. A potency from a partial, single-point or poor curve is only a rough figure. Some entries filed as inconclusive have a full curve.

| # | SMILES | setting | Potency (µM) | remark |
|---|---|---|---|---|
| 1 | `N[C@@H](Cc1cc(I)c(Oc2ccc(O)c(I)c2)c(I)c1)C(=O)O` | CP291 | 13.46 | inhibitor, single point |
| 2 | `N[C@@H](Cc1cc(I)c(Oc2ccc(O)c(I)c2)c(I)c1)C(=O)O` | DIV30 | 19.01 | inhibitor, single point |
| 3 | `N[C@@H](Cc1cc(I)c(Oc2ccc(O)c(I)c2)c(I)c1)C(=O)O` | CP297 | 19.01 | inhibitor, single point |
| 4 | `N[C@@H](Cc1cc(I)c(Oc2ccc(O)c(I)c2)c(I)c1)C(=O)O` | P93_24 | 11.22 | inhibitor, single point |
| 5 | `N[C@@H](Cc1cc(I)c(Oc2ccc(O)c(I)c2)c(I)c1)C(=O)O` | CP247 | 10 | inhibitor, single point |
| 6 | `N[C@@H](Cc1cc(I)c(Oc2ccc(O)c(I)c2)c(I)c1)C(=O)O` | DIV17 | 16.94 | inhibitor, single point |
| 7 | `N[C@@H](Cc1cc(I)c(Oc2ccc(O)c(I)c2)c(I)c1)C(=O)O` | CP269 | 13.46 | inhibitor, single point |
| 8 | `N[C@@H](Cc1cc(I)c(Oc2ccc(O)c(I)c2)c(I)c1)C(=O)O` | CP260 | 10 | inhibitor, single point |
| 9 | `N[C@@H](Cc1cc(I)c(Oc2ccc(O)c(I)c2)c(I)c1)C(=O)O` | PAD | 11.22 | inhibitor, single point |
| 10 | `N[C@@H](Cc1cc(I)c(Oc2ccc(O)c(I)c2)c(I)c1)C(=O)O` | CP265 | 17.78 | inhibitor, single point |
| 11 | `C[C@@]12CCC(=O)C=C1C=CC1C2CC[C@]2(C)C1CC[C@@]21CCC(=O)O1` (some centres unmarked) | CP217 | 10 | inhibitor, single point |
| 12 | `C[C@@]12CCC(=O)C=C1C=CC1C2CC[C@]2(C)C1CC[C@@]21CCC(=O)O1` (some centres unmarked) | N140 | 17.78 | inhibitor, single point |
| 13 | `C[C@@]12CCC(=O)C=C1C=CC1C2CC[C@]2(C)C1CC[C@@]21CCC(=O)O1` (some centres unmarked) | ICS | 14.13 | inhibitor, partial curve |
| 14 | `C[C@@]12CCC(=O)C=C1C=CC1C2CC[C@]2(C)C1CC[C@@]21CCC(=O)O1` (some centres unmarked) | CP247 | 10 | inhibitor, single point |
| 15 | `C[C@@]12CCC(=O)C=C1C=CC1C2CC[C@]2(C)C1CC[C@@]21CCC(=O)O1` (some centres unmarked) | TAB109 | 3.548 | inhibitor, single point |
| 16 | `C[C@@]12CCC(=O)C=C1C=CC1C2CC[C@]2(C)C1CC[C@@]21CCC(=O)O1` (some centres unmarked) | parasite line A | 11.22 | inhibitor, single point |
| 17 | `C[C@@]12CCC(=O)C=C1C=CC1C2CC[C@]2(C)C1CC[C@@]21CCC(=O)O1` (some centres unmarked) | CP185 | 12.59 | inhibitor, single point |
| 18 | `C[C@@]12CCC(=O)C=C1C=CC1C2CC[C@]2(C)C1CC[C@@]21CCC(=O)O1` (some centres unmarked) | 7G8 | 8.912 | inhibitor, single point |
| 19 | `C[C@@]12CCC(=O)C=C1C=CC1C2CC[C@]2(C)C1CC[C@@]21CCC(=O)O1` (some centres unmarked) | TAB165 | 11.22 | inhibitor, single point |
| 20 | `C[C@@]12CCC(=O)C=C1C=CC1C2CC[C@]2(C)C1CC[C@@]21CCC(=O)O1` (some centres unmarked) | C2A | 17.78 | inhibitor, single point |
| 21 | `C[C@@]12CCC(=O)C=C1C=CC1C2CC[C@]2(C)C1CC[C@@]21CCC(=O)O1` (some centres unmarked) | ATS189 | 17.78 | inhibitor, single point |
| 22 | `C[C@@]12CCC(=O)C=C1C=CC1C2CC[C@]2(C)C1CC[C@@]21CCC(=O)O1` (some centres unmarked) | DIV14 | 0.6746 | inhibitor, partial curve, poor fit |
| 23 | `C[C@@]12CCC(=O)C=C1C=CC1C2CC[C@]2(C)C1CC[C@@]21CCC(=O)O1` (some centres unmarked) | CP250 | 17.78 | inhibitor, single point |
| 24 | `Cc1cccc(CN2CCN([C@@H](c3ccccc3)c3ccc(Cl)cc3)CC2)c1` | TAB165 | 10 | inhibitor, single point |
| 25 | `Cc1cccc(CN2CCN([C@@H](c3ccccc3)c3ccc(Cl)cc3)CC2)c1` | DIV30 | 1.438 | inhibitor, full curve |
| 26 | `Cc1cccc(CN2CCN([C@@H](c3ccccc3)c3ccc(Cl)cc3)CC2)c1` | PC15 | 10 | inhibitor, single point |
| 27 | `Cc1cccc(CN2CCN([C@@H](c3ccccc3)c3ccc(Cl)cc3)CC2)c1` | SC27B | 7.08 | inhibitor, single point |
| 28 | `Cc1cccc(CN2CCN([C@@H](c3ccccc3)c3ccc(Cl)cc3)CC2)c1` | CP260 | 10 | inhibitor, single point |
| 29 | `Cc1cccc(CN2CCN([C@@H](c3ccccc3)c3ccc(Cl)cc3)CC2)c1` | AA1029 | 7.943 | inhibitor, single point |
| 30 | `Cc1cccc(CN2CCN([C@@H](c3ccccc3)c3ccc(Cl)cc3)CC2)c1` | TAB109 | 5.623 | inhibitor, single point |
| 31 | `Cc1cccc(CN2CCN([C@@H](c3ccccc3)c3ccc(Cl)cc3)CC2)c1` | CP250 | 7.08 | inhibitor, single point |
| 32 | `Cc1cccc(CN2CCN([C@@H](c3ccccc3)c3ccc(Cl)cc3)CC2)c1` | HB3 | 7.943 | inhibitor, single point |
| 33 | `Cc1cccc(CN2CCN([C@@H](c3ccccc3)c3ccc(Cl)cc3)CC2)c1` | CP191 | 7.08 | inhibitor, single point |
| 34 | `Cc1cccc(CN2CCN([C@@H](c3ccccc3)c3ccc(Cl)cc3)CC2)c1` | DIV14 | 8.087 | inhibitor, single point |
| 35 | `Cc1cccc(CN2CCN([C@@H](c3ccccc3)c3ccc(Cl)cc3)CC2)c1` | GB4 | 8.087 | inhibitor, single point |
| 36 | `Cc1cccc(CN2CCN([C@@H](c3ccccc3)c3ccc(Cl)cc3)CC2)c1` | DIV17 | 7.208 | inhibitor, single point |
| 37 | `Cc1cccc(CN2CCN([C@@H](c3ccccc3)c3ccc(Cl)cc3)CC2)c1` | P93_24 | 10 | inhibitor, single point |
| 38 | `Cc1cccc(CN2CCN([C@@H](c3ccccc3)c3ccc(Cl)cc3)CC2)c1` | P94_40 | 7.08 | inhibitor, single point |
| 39 | `Cc1cccc(CN2CCN([C@@H](c3ccccc3)c3ccc(Cl)cc3)CC2)c1` | TAB113 | 10 | inhibitor, single point |
| 40 | `Cc1cccc(CN2CCN([C@@H](c3ccccc3)c3ccc(Cl)cc3)CC2)c1` | PC26 | 5.726 | inhibitor, single point |
| 41 | `Cc1cccc(CN2CCN([C@@H](c3ccccc3)c3ccc(Cl)cc3)CC2)c1` | ATS189 | 10 | inhibitor, single point |
| 42 | `Cc1cccc(CN2CCN([C@@H](c3ccccc3)c3ccc(Cl)cc3)CC2)c1` | Dd2 | 3.981 | inhibitor, single point |
| 43 | `Cc1cccc(CN2CCN([C@@H](c3ccccc3)c3ccc(Cl)cc3)CC2)c1` | CP335 | 8.087 | inhibitor, single point |
| 44 | `Cc1cccc(CN2CCN([C@@H](c3ccccc3)c3ccc(Cl)cc3)CC2)c1` | CP217 | 7.943 | inhibitor, single point |
| 45 | `Cc1cccc(CN2CCN([C@@H](c3ccccc3)c3ccc(Cl)cc3)CC2)c1` | CP265 | 10 | inhibitor, single point |
| 46 | `Cc1cccc(CN2CCN([C@@H](c3ccccc3)c3ccc(Cl)cc3)CC2)c1` | ATS95 | 10 | inhibitor, single point |
| 47 | `Cc1cccc(CN2CCN([C@@H](c3ccccc3)c3ccc(Cl)cc3)CC2)c1` | 3D7 | 10 | inhibitor, single point |
| 48 | `Cc1cccc(CN2CCN([C@@H](c3ccccc3)c3ccc(Cl)cc3)CC2)c1` | CP192 | 0.0057 | inhibitor, full curve, poor fit |
| 49 | `Cc1cccc(CN2CCN([C@@H](c3ccccc3)c3ccc(Cl)cc3)CC2)c1` | CP247 | 3.162 | inhibitor, single point |
| 50 | `Cc1cccc(CN2CCN([C@@H](c3ccccc3)c3ccc(Cl)cc3)CC2)c1` | CP185 | 7.08 | inhibitor, single point |
| 51 | `Cc1cccc(CN2CCN([C@@H](c3ccccc3)c3ccc(Cl)cc3)CC2)c1` | N140 | 7.08 | inhibitor, single point |
| 52 | `Cc1cccc(CN2CCN([C@@H](c3ccccc3)c3ccc(Cl)cc3)CC2)c1` | ECU | 3.548 | inhibitor, single point |
| 53 | `Cc1cccc(CN2CCN([C@@H](c3ccccc3)c3ccc(Cl)cc3)CC2)c1` | CP286 | 8.912 | inhibitor, single point |
| 54 | `Cc1cccc(CN2CCN([C@@H](c3ccccc3)c3ccc(Cl)cc3)CC2)c1` | AS120 | 7.08 | inhibitor, single point |
| 55 | `Cc1cccc(CN2CCN([C@@H](c3ccccc3)c3ccc(Cl)cc3)CC2)c1` | PAD | 8.912 | inhibitor, single point |

The first 4 entries again:

N[C@@H](Cc1cc(I)c(Oc2ccc(O)c(I)c2)c(I)c1)C(=O)O [CP291] gave Potency 13.46 µM (inhibitor, single point).
N[C@@H](Cc1cc(I)c(Oc2ccc(O)c(I)c2)c(I)c1)C(=O)O [DIV30] gave Potency 19.01 µM (inhibitor, single point).
N[C@@H](Cc1cc(I)c(Oc2ccc(O)c(I)c2)c(I)c1)C(=O)O [CP297] gave Potency 19.01 µM (inhibitor, single point).
N[C@@H](Cc1cc(I)c(Oc2ccc(O)c(I)c2)c(I)c1)C(=O)O [P93_24] gave Potency 11.22 µM (inhibitor, single point).